Results on 59 molecules are retold here after PubChem BioAssay AID2685 (National Center for Advancing Translational Sciences (NCATS), 2010).

This assay in a line: qHTS Assay for Lipid Storage Modulators in Drosophila S3 Cells.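 For cell number change: cells counted by Cell Tracker Red CMTPX staining in the red channel.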 The following applies: BODIPY lipid droplet fluorescence, 18-24 h; for cell number change: measured here: cell count max response, cells fed with added oleic acid. An outline of the steps:
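Drosophila S3 cells loaded with oleic acid (400 uM, as added) and compounds at several concentrations; lipid droplets imaged by 488-nm laser-scanning cytometry, 500–530 nm intensity and object ratio to cell channel. Percent activity normalized to 20 uM Triacsin C.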

[1] abbreviates: measured here: cell number channel AC50, cells fed with added oleic acid.
Setting [2] is: measured here: lipid fluorescence (Fed channel) AC50, cells fed with added oleic acid.

Structures are written as SMILES. Some of the results follow. Further columns of the screen follow, without active or inactive calls. Compounds called inactive in the main read-out are mostly missing here. Words in brackets tell the shape of the fitted curve; partial curves, single points and poor fits give uncertain potencies.

Regarding `Cc1cccc(-n2c(N)cc(=O)nc2SCC(=O)Nc2nnc(CC(C)C)s2)c1`, the cell number change was -29%. For the same molecule, under setting [1], the AC50 is 3.66 µM [falling, full curve, poor fit]. Moreover, the AC50 under setting [2] was 3.26 µM [falling, partial curve].

For the molecule `O=c1cc[nH]c2c(Cl)cccc12`, the cell number change was found to be 1.27%. Besides, the half-maximal activity concentration (AC50) under setting [1] is 0.58 µM [falling, full curve, poor fit].

In the case of `COc1ccc(OC)c(NC(=O)Nc2ccc3c(c2)OCO3)c1`, the cell number change is -14.4%. In addition, under setting [2], the AC50 is 0.631 µM [rising, full curve, poor fit].

For `CC(C)NC(=O)NC1C2CC3CC(C2)CC1C3` (configuration not stated), the cell number change was -4.43%. In addition, under setting [2], the AC50 was 0.0184 µM [falling, full curve, poor fit].

For `CCCC(=O)N1CCC(Cc2ccccc2)CC1`, the cell number change was -20.6%.

Regarding `CC(Oc1ccccc1)C(=O)Nc1nc(-c2ccccn2)cs1` (configuration not stated), the concentration at half-maximal activity (AC50) under setting [1] is 2.59 µM [rising, single point].

Take `CCCCn1c(N)c(N(CC)C(=O)Cc2ccc(S(=O)(=O)N3CCOCC3)s2)c(=O)[nH]c1=O`: the cell number change is -17.6%. Under setting [2], the half-maximal activity concentration (AC50) was 0.116 µM [falling, full curve, poor fit].

Consider `COc1ccc(CCNc2nc(-c3ccc(O)cc3)cs2)cc1OC`, for which the cell number change is -69%. For the same molecule, the AC50 under setting [1] was 29.1 µM [falling, single point]. Further, under setting [2], the AC50 is 29.1 µM [rising, single point].

Regarding `CCC(C)N(C(=O)CCC(=O)Nc1cc(C)on1)C(C(=O)NC(C)(C)C)c1ccccc1Cl` (configuration not stated), the cell number change is 22.6%. Also, the AC50 under setting [2] was 29.1 µM [rising, single point].

On to `N#Cc1ccccc1OCC(=O)OCC(=O)N1CCN(C(=O)c2ccco2)CC1`, for which the AC50 is 6.51 µM [rising, partial curve, poor fit] under setting [1] and 0.366 µM [rising, full curve] under setting [2].

In the case of `COc1ccc2c(c1)O/C(=C\c1ccccc1C)C2=O`, the cell number change is 31.5%. The AC50 under setting [1] was 23.1 µM [rising, single point]. In addition, the AC50 under setting [2] was 29.1 µM [rising, single point].

Turning to `CCCCN(C(=O)CSc1ncn[nH]1)c1c(N)n(Cc2ccccc2)c(=O)[nH]c1=O`, the cell number change is -0.82%. Moreover, under setting [2], the AC50 is 13 µM [rising, partial curve, poor fit].

Consider `Cn1c(-c2ccc3c(c2)OCO3)cnc1NC(=O)CCC(=O)NCCc1ccccc1`, for which the cell number change is -4.84%. Besides, the AC50 under setting [2] is 6.51 µM [rising, partial curve, poor fit].

On to `COCCC1CCCCN1C(=O)c1cccc(OC2CCN(S(C)(=O)=O)CC2)c1` (configuration not stated), for which the cell number change is -1.73%.

In the case of `Cc1nc(Nc2ccccc2)sc1-c1ccccc1`, the cell number change was -69.6%. For the same molecule, under setting [1], the AC50 was 25.9 µM [falling, partial curve]. Also, the AC50 under setting [2] is 29.1 µM [falling, partial curve].

Turning to `O=C(COC(=O)c1ccco1)NCC1CCCCC1`, the cell number change is -3.31%. Moreover, the AC50 under setting [2] was 6.51 µM [rising, partial curve].

In the case of `CCCCCC(C)NC(=O)c1cc(S(=O)(=O)N2CCCCC2)ccc1N1CCOCC1` (configuration not stated), the cell number change was 21.1%. The AC50 under setting [2] is 20.6 µM [rising, partial curve, poor fit].

For the molecule `C=CCNc1nc(-c2sc(NC(=O)CC)nc2C)cs1`, the cell number change is -14.5%.

Consider `CC(C)CN1CCC(=O)N([C@H](CO)c2ccccc2)CC1`, for which the cell number change amounted to 21.9%. Under setting [1], the AC50 is 0.146 µM [rising, full curve, poor fit]. In addition, the half-maximal activity concentration (AC50) under setting [2] was 0.58 µM [rising, single point].

Regarding `CCOC(=O)[C@@H]1[C@H]2COc3ccc(Br)cc3[C@H]2N2C(=O)N(c3cccc(F)c3)C(=O)[C@]12C`, the cell number change stood at 41.9%. In addition, the AC50 under setting [1] is 23.1 µM [rising, single point]. Moreover, under setting [2], the AC50 was 2.91 µM [falling, single point].

For `CC(C)(C)NC(=O)C(OC(=O)c1ccco1)c1ccc(Cl)cc1` (configuration not stated), the cell number change was found to be 10.5%. Under setting [2], the AC50 is 3.26 µM [rising, single point].

For `O=C(CN1C(=O)C2CCCCC2C1=O)OCc1nnc(-c2ccccc2)o1` (configuration not stated), the cell number change was -21.6%.

Turning to `CCOC(=O)C1=C(C)OC(N)=C(C#N)C1c1cc(C)sc1C` (configuration not stated), the cell number change is -45.8%. Further, under setting [1], the AC50 is 3.66 µM [falling, partial curve, poor fit].

For `CCn1cc(Cl)c(C(=O)Nc2c(C)nn(Cc3c(F)c(F)c(F)c(F)c3F)c2C)n1`, the cell number change was -22.4%. For the same molecule, the concentration at half-maximal activity (AC50) under setting [2] was 0.58 µM [rising, single point].

Regarding `CC/C(=N/Nc1ccc(Cl)cc1)c1cnnc(SC)n1`, the cell number change is -5.37%. The AC50 under setting [2] is 29.1 µM [rising, single point].

On to `CCN(Cc1nc(-c2ccccc2)no1)C(=O)c1ccc2c(c1)OCO2`, for which the cell number change was found to be 13%.

With `O=C(CNC(=O)c1ccccc1)NCC1COc2ccccc2O1` (configuration not stated), under setting [2], the AC50 is 6.51 µM [rising, partial curve, poor fit].

Take `O=C(/C=C/c1ccc(Cl)cc1)N1CCN(c2ccccc2[N+](=O)[O-])CC1`: the cell number change was determined as 39.2%. Moreover, the AC50 under setting [1] was 14.6 µM [rising, single point].

For `CCOc1ccc(C(C)=O)cc1Cc1c(O)nc(N)[nH]c1=O`, the cell number change was -16.1%. Besides, the AC50 under setting [2] is 10.3 µM [falling, partial curve].

With `CN(C(=O)C12CC3CC(CC(C3)C1)C2)C1(C)CCS(=O)(=O)C1` (configuration not stated), the cell number change was 19.9%. Also, under setting [1], the AC50 was 0.82 µM [rising, full curve, poor fit]. Under setting [2], the AC50 is 0.731 µM [falling, partial curve, poor fit].

For the molecule `COc1cc([N+](=O)[O-])cc2sc(NC(=O)C(C)(C)C)nc12`, the cell number change is -47.8%. The AC50 under setting [1] is 20.6 µM [falling, partial curve, poor fit]. For the same molecule, under setting [2], the AC50 was 23.1 µM [falling, partial curve, poor fit].

Regarding `Cc1cc([N+](=O)[O-])nn1CCC(=O)NC1CCCCCC1`, the cell number change was 7.99%. For the same molecule, under setting [2], the half-maximal activity concentration (AC50) was 0.00517 µM [falling, full curve, poor fit].

As for `CC(NC(=O)c1ccccc1Br)c1nnc(SCC(=O)NC2CCCCC2)n1C` (configuration not stated), the cell number change stood at 3.48%.

Consider `O=C(Nc1ccc(Br)cn1)c1cccc(-c2cc3ccccc3oc2=O)c1`, for which the cell number change is -50.8%. The AC50 under setting [1] was 16.4 µM [falling, single point]. For the same molecule, the AC50 under setting [2] was 16.4 µM [falling, single point].

With `CCC(C)NC(=O)Nc1ccc(Br)cc1` (configuration not stated), the cell number change came to 8.47%.

Take `O=C(O)CCNS(=O)(=O)c1ccccc1Br`: the cell number change is -33.5%.

As for `COc1ccccc1N1CCN(C(=O)CN(CCc2ccccc2)S(C)(=O)=O)CC1`, the cell number change amounted to 38.2%. Besides, the AC50 under setting [1] was 8.2 µM [rising, partial curve]. Besides, under setting [2], the AC50 was 18.4 µM [rising, partial curve].

With `Cc1nn(C2CCS(=O)(=O)C2)c(Cl)c1/C=C/C(=O)OCC(=O)c1cc(C)n(-c2ccc(F)cc2)c1C` (configuration not stated), the cell number change was -5.02%. For the same molecule, under setting [2], the AC50 was 0.0146 µM [rising, full curve, poor fit].

Take `CN1C(=O)N(c2cccc3ccccc23)C(n2cncn2)C1(C)C` (configuration not stated): the cell number change is 35.8%. Besides, under setting [1], the half-maximal activity concentration (AC50) was 0.00461 µM [rising, full curve, poor fit].

With `Cc1ccc(OCc2n[nH]c(=S)n2-c2ccccc2)cc1`, the cell number change was -12.8%. Also, under setting [1], the AC50 was 0.731 µM [rising, single point].

On to `O=C(CSc1n[nH]c(=O)n1-c1cccnc1)N1CCOCC1`, for which the cell number change amounted to 19.3%. In addition, the AC50 under setting [1] was 5.8 µM [falling, single point]. Under setting [2], the AC50 is 4.61 µM [falling, single point].

In the case of `C=CCn1c(SCC(=O)Nc2cc(NC(C)=O)ccc2OC)nnc1-c1ccccn1`, the cell number change is -5.55%.

Regarding `CC(SC(=S)N1CCOCC1)C(=O)O` (configuration not stated), the cell number change was -15.7%. Further, under setting [2], the half-maximal activity concentration (AC50) was 0.164 µM [falling, full curve].

`CCOCCn1c(=O)c2c(nc3n2CCCN3Cc2ccccc2)n(C)c1=O`: the cell number change was -5.63%.

For `COc1ccc(C)cc1NC(=S)NNC(=O)c1ccccc1Cl`, under setting [1], the concentration at half-maximal activity (AC50) is 0.411 µM [rising, full curve, poor fit].

Take `COc1ncnc2c1oc1nc(C(C)C)c3c(c12)CC(C)(C)OC3`: the cell number change was -2.51%. In addition, under setting [2], the concentration at half-maximal activity (AC50) is 0.651 µM [falling, single point].

For `CCC/C(=N\NC(=O)c1ccc(OC)c(OC)c1)c1ccccc1`, the cell number change is -2.57%.

For the molecule `Cc1cccc(NC(=O)C2CCN(S(=O)(=O)c3ccc4c(c3)OCCO4)CC2)n1`, the cell number change came to 144%. Besides, the AC50 under setting [1] is 0.13 µM [falling, full curve, poor fit].

Regarding `CC(C)=CC1C=C(C)C(C)C2C(=O)NNC(=O)C12` (configuration not stated), the cell number change is 78.9%. Besides, the AC50 under setting [1] was 18.4 µM [rising, partial curve]. The AC50 under setting [2] is 1.03 µM [rising, full curve].

Consider `O=c1sc2ccccc2n1CCOc1ccccc1`, for which, under setting [2], the AC50 is 8.2 µM [rising, partial curve, poor fit].

`O=C(O)c1cccc(COc2ccc(CO)cc2Cl)c1`: the cell number change was -37.6%. The AC50 under setting [1] was 3.66 µM [falling, full curve]. Further, under setting [2], the AC50 was 5.8 µM [falling, full curve].

As to `O=C(CSc1nn(-c2ccc(F)cc2)c(=S)s1)NC1CCS(=O)(=O)C1` (configuration not stated), the cell number change was 117%. The AC50 under setting [1] is 20.6 µM [rising, partial curve]. Further, under setting [2], the AC50 is 1.84 µM [rising, partial curve].

Consider `Cc1cc(C(=O)NNC(=O)NC(C)C)no1`, for which the AC50 under setting [2] is 18.4 µM [falling, single point].

In the case of `c1sc2[n+](c1C13CC4CC(CC(C4)C1)C3)CCS2`, the cell number change is -0.115%. The AC50 under setting [2] was 0.00461 µM [falling, full curve, poor fit].

Turning to `COc1cc(NS(=O)(=O)c2ccc3c(c2)oc(=O)n3C)cc(OC)c1OC`, the cell number change was -16.2%. In addition, the AC50 under setting [2] was 1.3 µM [falling, full curve].

For the molecule `COc1cc2ccccc2cc1C(=O)N(CCN(C)C)c1nc2ccc(C)cc2s1`, the cell number change is 5.97%. Also, the AC50 under setting [2] was 20.6 µM [rising, single point].

Turning to `CN(C)C(CNC(=O)c1ccc2c(=O)n(-c3ccccc3F)c(=S)[nH]c2c1)Cc1ccccc1` (configuration not stated), the cell number change was -25.3%. Moreover, the AC50 under setting [1] was 0.326 µM [falling, full curve, poor fit]. Besides, the AC50 under setting [2] is 0.13 µM [falling, partial curve, poor fit].

Turning to `O=C(NC1CCCC1)c1nc2c(nnn2Cc2ccccc2Cl)c(=O)[nH]1`, the cell number change was -0.371%. For the same molecule, the AC50 under setting [2] is 3.26 µM [rising, single point].

`CCOc1ccc(NC(=O)CN2CCN(Cc3c(F)cccc3F)CC2)cc1`: the cell number change was 38.7%. For the same molecule, the AC50 under setting [1] is 18.4 µM [rising, single point].

Broadly, the AC50 is the concentration giving half of the maximal activity seen.
